These are yes or no findings as the source states them, for the method shown. For some assays here: Binding seen in cells or lysates may run through a third protein. Some entries that bind do so weakly or less than the wild type. For some assays here: Sequences can lack the tags named with a protein.
Legend:
[1] = biological target: T1, Rubisco (H. neapolitanus Form IA, L8S8 holoenzyme of CbbL and CbbS) (H. neapolitanus) (UniProt O85040+P45686); assay: pull-down
[2] = biological target: T1, Rubisco (H. neapolitanus Form IA, L8S8 holoenzyme of CbbL and CbbS) (H. neapolitanus); assay: crystal structure

The chains behind the UniProt entries cited, without tags or fusion partners. Where a name states a change or a piece, a line headed by the entry shows the natural chain unless it says otherwise.
UniProt O85040: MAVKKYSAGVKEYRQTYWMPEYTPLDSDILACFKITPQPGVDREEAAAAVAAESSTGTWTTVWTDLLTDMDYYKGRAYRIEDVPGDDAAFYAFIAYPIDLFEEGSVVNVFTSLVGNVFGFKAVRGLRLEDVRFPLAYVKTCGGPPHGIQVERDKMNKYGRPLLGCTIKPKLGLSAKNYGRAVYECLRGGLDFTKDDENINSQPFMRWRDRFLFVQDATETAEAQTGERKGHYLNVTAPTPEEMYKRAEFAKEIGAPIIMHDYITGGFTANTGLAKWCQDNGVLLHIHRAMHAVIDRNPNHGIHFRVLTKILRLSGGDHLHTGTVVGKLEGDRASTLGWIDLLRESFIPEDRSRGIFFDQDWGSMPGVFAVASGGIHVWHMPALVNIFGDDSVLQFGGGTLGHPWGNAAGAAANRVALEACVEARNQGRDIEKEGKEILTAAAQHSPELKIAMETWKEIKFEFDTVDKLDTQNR
UniProt P45686: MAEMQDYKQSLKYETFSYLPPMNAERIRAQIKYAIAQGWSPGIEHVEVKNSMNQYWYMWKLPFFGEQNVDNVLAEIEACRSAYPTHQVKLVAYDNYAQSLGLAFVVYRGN
UniProt O85041: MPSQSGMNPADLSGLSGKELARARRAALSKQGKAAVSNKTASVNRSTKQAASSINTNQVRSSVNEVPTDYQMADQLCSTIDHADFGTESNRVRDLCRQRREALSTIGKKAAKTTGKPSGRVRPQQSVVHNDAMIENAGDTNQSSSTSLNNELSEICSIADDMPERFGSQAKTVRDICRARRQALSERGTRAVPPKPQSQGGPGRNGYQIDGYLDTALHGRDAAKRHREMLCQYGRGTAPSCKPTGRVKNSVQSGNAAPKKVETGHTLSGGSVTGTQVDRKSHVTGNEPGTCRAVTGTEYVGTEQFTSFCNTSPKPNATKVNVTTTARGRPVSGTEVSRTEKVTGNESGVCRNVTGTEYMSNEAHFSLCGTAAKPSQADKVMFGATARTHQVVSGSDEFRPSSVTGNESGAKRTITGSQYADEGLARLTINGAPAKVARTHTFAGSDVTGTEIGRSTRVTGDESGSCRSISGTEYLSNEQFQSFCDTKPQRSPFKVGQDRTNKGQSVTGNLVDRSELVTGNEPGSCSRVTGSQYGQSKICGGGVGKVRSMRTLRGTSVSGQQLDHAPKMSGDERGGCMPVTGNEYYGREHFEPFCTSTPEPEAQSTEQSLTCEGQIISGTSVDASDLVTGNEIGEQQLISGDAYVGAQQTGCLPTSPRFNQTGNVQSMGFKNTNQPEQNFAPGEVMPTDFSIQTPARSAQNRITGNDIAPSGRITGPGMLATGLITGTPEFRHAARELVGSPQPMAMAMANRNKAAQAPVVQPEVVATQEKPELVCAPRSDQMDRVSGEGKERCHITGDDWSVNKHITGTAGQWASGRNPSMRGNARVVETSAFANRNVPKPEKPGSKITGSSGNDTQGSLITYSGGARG

“CsoS2 (H. neapolitanus), full length, 6xHis-tagged (from UniProt O85041 1-869)” was tested, and the binding [1] was “binds”.

B1: N*-peptide (as bound in the crystal structure of the Rubisco-N* fusion) (peptide)
peptide: GRDLARARREALSQQGKAAV
For B1, the binding [2] was “binds”.
